PubChem BioAssay AID1159578, Peter MacCallum Cancer Centre | 2015
In all, the deposit lists about 18,000 reagents; shown is a random part of them. About 1,030 of them (5.7%) were called active. 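Inactive calls also include pools with fewer than 3300 nuclei, whose migration was not assessed.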 The raw values are shown without normalisation. A number with no mark means an inactive call. Reagent sequences are not shown.

- Purpose: 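Knock-downs that alter how fast lymphatic endothelial cells migrate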 (primary screen)
- Cells: human lymphatic endothelial cells
- Reagent: siRNA pool against human genes, 40 nM
- Duration: 48 h after transfection
- Measurement: 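High-content imaging of dye-stained cells in a scratch assay measures filled wound area and nuclei per well; duplicate means given as ratio to mock and robust z-score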
- Reading the numbers: migration robust z-score: higher = faster migration into the scratch; migration relative to mock: higher = more scratch area covered than mock; nuclei per well: higher = more cells in the well
- Hit rule: 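Migration changed when robust z exceeds 2 or falls below -2 and mean nuclei number is at least 3300; otherwise not called changed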
- Meaning of the calls: active = migration changed; inactive = no migration change, or too few cells

no.	target gene	migration robust z-score	migration class with cell-count check	migration relative to mock	nuclei per well, duplicate mean
1	NDUFAF1	-0.98	migration z between -2 and 2; enough cells	0.63	4852
2	PAXIP1	-0.58	migration z between -2 and 2; enough cells	0.74	5933
3	ANKRD37	-0.26	migration z between -2 and 2; enough cells	0.82	5491
4	RPS9	1.37	migration z between -2 and 2; enough cells	1.24	6058
5	SLC4A4	-1.27	migration z between -2 and 2; enough cells	0.56	5960
6	GALNT5	0.24	migration z between -2 and 2; enough cells	0.85	5408
7	URM1	-1.07	migration z between -2 and 2; enough cells	0.61	3460
8	DTL	-0.56	migration z between -2 and 2; enough cells	0.74	6444
9	LRRC59	-0.71	migration z between -2 and 2; enough cells	0.7	5706
10	KIF4A	1.3	migration z between -2 and 2; enough cells	1.06	4981
11	BIVM	1.98	migration z between -2 and 2; enough cells	1.4	6420
12	CLK3	-1.09	migration z between -2 and 2; enough cells	0.6	4726
13	RUNDC3B	0.15	migration z between -2 and 2; enough cells	0.92	5792
14	PYM1	-0.14	migration z between -2 and 2; enough cells	0.84	7072
15	DNAH3	0.1	migration z between -2 and 2; enough cells	0.82	5876
16	BTC	0.3	migration z between -2 and 2; enough cells	0.97	5060
17	INTS7	0.21	migration z between -2 and 2; enough cells	0.94	6730
18	ARG2	0.32	migration z between -2 and 2; enough cells	0.97	6330
19	SRSF3	0.48	migration z between -2 and 2; enough cells	1.01	5538
20	CXCL3	0.07	migration z between -2 and 2; enough cells	0.9	6153
21	FAM161A	-1.38	migration z between -2 and 2; enough cells	0.52	4172
22	TMEM254	-0.68	migration z between -2 and 2; enough cells	0.71	4780
23	TRPC7	-0.8	migration z between -2 and 2; enough cells	0.65	4781
24	TFEB	0.34	migration z between -2 and 2; enough cells	0.87	5649
25	YWHAH	0.02	migration z between -2 and 2; enough cells	0.81	5125
26	STON2	-4.68	under 3300 nuclei; migration not judged	-0.36	1330
27	TDRD9	0.3	migration z between -2 and 2; enough cells	0.97	5442
28	SEPTIN11	-0.68	migration z between -2 and 2; enough cells	0.68	5889
29	ZNF268	0.24	migration z between -2 and 2; enough cells	0.95	5680
30	ZNF397	-1.04	migration z between -2 and 2; enough cells	0.62	6735
31	DAZAP2	0.25	migration z between -2 and 2; enough cells	0.95	5414
32	SMARCD1	0.8	migration z between -2 and 2; enough cells	0.96	5601
33	CPLX3	1.44	migration z between -2 and 2; enough cells	1.25	5880
34	HCRT	-0.62	migration z between -2 and 2; enough cells	0.72	6042
35	OR10AG1	0.5	migration z between -2 and 2; enough cells	1.02	5210
36	ACOX1	2.02 (active)	migration z above 2; enough cells	1.19	5589
37	COPRS	-0.68	migration z between -2 and 2; enough cells	0.71	5434
38	SEZ6L	-1.44	migration z between -2 and 2; enough cells	0.52	4289
39	ATP13A3	-0.29	migration z between -2 and 2; enough cells	0.75	6048
40	IGFBP5	-0.64	migration z between -2 and 2; enough cells	0.72	5648
41	RPGRIP1L	-0.9	migration z between -2 and 2; enough cells	0.65	5287
42	HRNR	-0.12	migration z between -2 and 2; enough cells	0.86	6163
43	DUSP15	0.42	migration z between -2 and 2; enough cells	0.88	6314
44	DHX16	-2.96 (active)	migration z below -2; enough cells	0.24	5850
45	POLK	-0.96	migration z between -2 and 2; enough cells	0.62	3384
46	CSNK2A1	1.35	migration z between -2 and 2; enough cells	1.06	4894
47	SAMD8	0.26	migration z between -2 and 2; enough cells	0.95	5562
48	ZNF782	0.78	migration z between -2 and 2; enough cells	1.09	7450
49	AKAP10	1.97	migration z between -2 and 2; enough cells	1.19	5615
50	CXCR2	-0.39	migration z between -2 and 2; enough cells	0.73	5604
51	BAP1	0.6	migration z between -2 and 2; enough cells	0.92	6030
52	TMEM170A	0.09	migration z between -2 and 2; enough cells	0.9	5992
53	MB	-0.93	migration z between -2 and 2; enough cells	0.64	5330
54	ITGA1	-1.29	migration z between -2 and 2; enough cells	0.54	5691
55	MAGEA11	0.49	migration z between -2 and 2; enough cells	1.01	5654
56	TRIM42	0.39	migration z between -2 and 2; enough cells	0.88	5100
57	SLC2A4	0.08	migration z between -2 and 2; enough cells	0.82	7431
